Test results from the supplement of paper PMC4683952.
The list shows a part of the results. Rule as the data show it: active = 2 or more and inactive = the rest. Repeats in this data set agree poorly, so a single value says little.

These compounds were tested on Lgr5 (MarsCy1-Lgr5-EGFP, U2OS) (assay: cell-surface Lgr5 expression (SCi1 fluorescence, background-subtracted) relative to WT DMSO (fold of DMSO control); higher = more Lgr5 at the plasma membrane). Conditions: U2OS MarsCy1-Lgr5-EGFP stable; treatment time: overnight; library: ActiProbe-5K (TimTec); 25 µM.

cell-surface Lgr5 expression, inactive:
FC(F)(F)c1ccccc1CNCC1CCCO1 (stereo not drawn) 0.981
Sc1nccn1-c1ccccc1 1.11
OC(c1nc2ccccc2[nH]1)C(O)c1nc2ccccc2[nH]1 (stereo not drawn) 1.25
CC(C)(C)N1CC(CO)([N+](=O)[O-])C1 1.18
CC(C)(C)C(=O)CSc1ncnc2nc[nH]c12 1.47
O=S1(=O)CC(Br)C(Br)C1 (stereo not drawn) 1.44
S=c1nc2[nH]c3ccccc3c2n[nH]1 1.18
Cc1ccsc1/C=N/N=C(/N)c1nonc1N 0.927
Nc1cc(Br)cc(Br)c1 0.993
O=C1c2ccccc2C(=O)c2c1cc(S(=O)(=O)[O-])c(O)c2O.[Na+] 0.996
CC1CN(S(=O)(=O)c2ccc3oc4ccccc4c3c2)CC(C)O1 (stereo not drawn) 1.15
Sc1nnc(C2CCCCC2)n1/N=C\c1ccccn1 1.15
Cl.Cl.N=C(N)SCc1csc(N)n1 1.14
Cc1ccc2c(c1)-c1c(sn(-c3ccc(C)c(C)c3)c1=S)C(C)(C)N2Cc1ccccc1 1
c12c(nc[nH]2)ncnc1NC\C=C(/C)C 0.867
c1nc(N2CCOCC2)c2c3c(sc2n1)CCCC3 0.709
CC1CCN(c2nc3c(N)ncnc3n2C2OC(CO)C(O)C2O)CC1 (stereo not drawn) 0.98
O=[N+]([O-])c1cc[n+]([O-])c(Br)c1 0.273
C#CCN1C(=O)C2(NC(CCSC)C3C(=O)N(c4ccccc4)C(=O)C32)c2ccccc21 (stereo not drawn) 1.11
Nc1nc2c(s1)C(c1ccsc1)CC(=O)N2 (stereo not drawn) 0.854
CCCCSc1nnc(C(F)F)n1/N=C/c1cnn(C)c1C 1.51
CNC(=O)c1nn(C)cc1NS(=O)(=O)c1cnn(C)c1C 0.938
Cn1cnnc1SCC(=O)c1cccs1 1.14
COC(=O)/C=C(/C)NCCN/C(C)=C\C(=O)OC 1.2
Cc1sc2nc[nH]c(=O)c2c1C 1.25
CC1(C)CC(=O)C(C(C2=C(O)CC(C)(C)CC2=O)C(O)CO)C(=O)C1 (stereo not drawn) 0.958
CC12C=CC(=O)C=C1CCC1C2C(=O)CC2(C)C1CCC2(O)C(=O)CO (stereo not drawn) 1.32
CCOC(=O)c1csc2c1CCC(C(C)(C)C)C2 (stereo not drawn) 1.1
Cc1nnc(SCC(=O)Nc2nccs2)[nH]c1=O 0.975
CC(NC(=O)c1cc(=O)n(C)c(=O)n1C)C12CC3CC(CC(C3)C1)C2 (stereo not drawn) 1.37
O=c1nc(O)c2sc3nc4c(c(C(F)F)c3c2[nH]1)CCCC4 1.48
CC1=C(C#N)C(NC(=O)c2ccco2)(C(F)(F)F)C(=O)N1 (stereo not drawn) 1.22
NC(=S)N/N=C\c1c2ccccc2cc2ccccc12 1.48
CN1CCN(CC(=O)N2CCCC2=O)CC1 1.43
CS(=O)(=O)Nc1ccc(Br)cc1 1.14
Cc1[nH]c(=O)c(C#N)c(C)c1[N+](=O)[O-] 1.14
CC(C)C(C1=C(O)CC(C)(C)CC1=O)C1C(=O)CC(C)(C)CC1=O (stereo not drawn) 1.28
c1ccc2c(C3Nc4cccc5cccc(c45)N3)cccc2c1 0.978
Clc1nc(NCc2ccco2)nc(NC2CCCCC2)n1 1.22
CC(C)(C)NC(=O)CSc1nnnn1C(C)(C)C 1.39
Cn1c(=O)c2c(nc(Sc3ncn[nH]3)n2C)n(C)c1=O 1.15
O=S(=O)(Nc1ccc(F)c(Cl)c1)c1ccc(Cl)cc1 1.12
O=S(=O)(c1ccc(F)c2ccccc12)N1CCOc2ccccc21 1.38
c1ccc(-c2cn3nc4c(nc3n2)[nH]c2ccccc24)cc1 1.15
Cc1ccc(C(=O)NN(C)C)o1 1.07
CNC(=S)Nc1ccc2c(c1)CCCC2 1.1
Cc1ccsc1/C=N/n1c(S)nnc1-c1ccco1 1.19
Cc1nn(Cc2nc(-c3cccs3)no2)c(C)c1Br 0.923
Cc1cc(=S)n(-c2ccccc2)n1C 1.33
CSc1ccc(/C=N/c2ccccn2)cc1 1.01
O=C(CCCCCC(=O)N/N=C1\CC2CC=CC12)N/N=C1\CC2CC=CC12 (stereo not drawn) 1.1
CCCc1ccn(CCSCC)c1-c1cccs1 1.35
CN(C)/C=N\CCCn1c(N2CCCCC2)nc2c1c(=O)n(C)c(=O)n2C 1.26
Cc1n[nH]c2c1C(c1cc(Br)c(C)s1)C(C#N)=C(N)O2 (stereo not drawn) 1.53
Cc1ccc(C2C3CCCC=C3C(C#N)C(N)C2(C#N)C#N)s1 (stereo not drawn) 1.1
COC(=O)C12CC3CC(CC(C(=O)OC)(C1)C3=O)C2=O 1.23
CCCCO/N=C(\Nc1nc(C)cc(C)n1)NS(=O)(=O)c1ncn[nH]1 1.17
COC(=O)c1nn[nH]c1Cl 1.01
Brc1ccc(C2OCC3(CO2)CC2C=CC3C2)cc1 (stereo not drawn) 1
CN(C)c1nc(N)nc(C2CCCN2S(=O)(=O)c2ccc3ccccc3c2)n1 (stereo not drawn) 1.27
O=c1cc2ncc(-c3n[nH]cc3[N+](=O)[O-])cn2[nH]1 1.03
O=c1cc2ncc(-n3cc([N+](=O)[O-])cn3)cn2[nH]1 1.08
CN(C)c1ccc(Br)c2ccccc12 0.978
O=C(O)CSc1n[nH]c(=O)[nH]c1=O 1.09
Cc1nc(O)nc(O)c1N(C)C 1.06
Cn1c(COc2ccccc2Br)nc2ccccc21 0.989
NN(CCc1ccccn1)C1=NS(=O)(=O)c2ccccc21 0.967
S=C(NC1CCCCC1)N1CCOCC1 1.1

Among those listed so far, these have a thiophene ring, fused or not:
cell-surface Lgr5 expression, inactive:
Cc1ccsc1/C=N/N=C(/N)c1nonc1N 0.927
c1nc(N2CCOCC2)c2c3c(sc2n1)CCCC3 0.709
Nc1nc2c(s1)C(c1ccsc1)CC(=O)N2 (stereo not drawn) 0.854
Cn1cnnc1SCC(=O)c1cccs1 1.14
Cc1sc2nc[nH]c(=O)c2c1C 1.25
CCOC(=O)c1csc2c1CCC(C(C)(C)C)C2 (stereo not drawn) 1.1
O=c1nc(O)c2sc3nc4c(c(C(F)F)c3c2[nH]1)CCCC4 1.48
Cc1ccsc1/C=N/n1c(S)nnc1-c1ccco1 1.19
Cc1nn(Cc2nc(-c3cccs3)no2)c(C)c1Br 0.923
CCCc1ccn(CCSCC)c1-c1cccs1 1.35
Cc1n[nH]c2c1C(c1cc(Br)c(C)s1)C(C#N)=C(N)O2 (stereo not drawn) 1.53
Cc1ccc(C2C3CCCC=C3C(C#N)C(N)C2(C#N)C#N)s1 (stereo not drawn) 1.1
